Tested on: larval zebrafish
Assay: Neurotoxicity ranking of congeners (RYR binding, behavior, body burden)
Details: 1 = most potent

| SMILES | Rank (overall neurotoxic potency) |
| --- | --- |
| Clc1cc(Cl)c(-c2cc(Cl)c(Cl)cc2Cl)cc1Cl [PCB 153, 2,2',4,4',5,5'-Hexachlorobiphenyl] | 4 |
| Clc1ccc(-c2ccc(Cl)cc2Cl)cc1 [PCB 28] | 6 |
| Clc1cc(Cl)c(-c2ccc(Cl)c(Cl)c2Cl)cc1Cl [PCB 138] | 2 |
| Clc1cccc(-c2c(Cl)ccc(Cl)c2Cl)c1Cl [PCB 84] | 3 |
| Clc1ccc(-c2ccc(Cl)c(Cl)c2)c(Cl)c1 [PCB 66] | 5 |
| Clc1ccc(Cl)c(-c2c(Cl)ccc(Cl)c2Cl)c1 [PCB 95, 2,2',3,5',6-pentachlorobiphenyl] | 1 |

From article PMC9582434, “Ryanodine receptor-active non-dioxin-like polychlorinated biphenyls cause neurobehavioral deficits in larval zebrafish” (Frontiers in Toxicology, 2022)
